No constants are given. Whether binding was seen depends on the method and setting. Some binding calls cover weakened binding; strength is not graded here. Where a sequence is shown, tags or fusion partners need not be part of it.
Target: T1, NHR-91 (GCNF homolog), Gal4 fusion for yeast two-hybrid (C. elegans) (UniProt Q9U2R6)
T1 sequence: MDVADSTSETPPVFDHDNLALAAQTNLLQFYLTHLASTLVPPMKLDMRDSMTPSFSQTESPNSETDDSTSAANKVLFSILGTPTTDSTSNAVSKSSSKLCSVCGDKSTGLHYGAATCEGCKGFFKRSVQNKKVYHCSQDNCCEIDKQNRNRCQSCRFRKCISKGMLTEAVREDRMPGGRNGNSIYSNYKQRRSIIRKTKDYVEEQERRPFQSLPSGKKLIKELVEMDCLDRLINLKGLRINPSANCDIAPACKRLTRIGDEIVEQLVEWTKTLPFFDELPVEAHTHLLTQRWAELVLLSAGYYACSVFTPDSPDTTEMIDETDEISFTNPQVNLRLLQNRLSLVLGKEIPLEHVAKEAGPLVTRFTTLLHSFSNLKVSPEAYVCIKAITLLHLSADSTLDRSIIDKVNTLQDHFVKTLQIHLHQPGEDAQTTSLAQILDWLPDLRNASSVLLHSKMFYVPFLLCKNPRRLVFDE
Test: two-hybrid; Gal4 system in S. cerevisiae MaV103; DB fusion as bait (target in the rows), AD fusion as prey (binder in the rows); AD-Orfeome library screen and pairwise matrix tests; β-galactosidase (LacZ) and HIS3 (20 mM 3-aminotriazole) reporters

- binding: binds
B1: NHR-25 3KR (K165R K170R K236R), Gal4 fusion for yeast two-hybrid (protein, UniProt Q19345 1-572)
chain: MTDVERMVLRPNHEGEMCPVCGDRVSGYHYGLLTCESCKGFFKRTVQNKKQYQCSAEANCHVDRTCRKRCPSCRFQKCLTMGMKMEAVRADRMRGGRNKFGSFYKKDRAHRMQRNAMRVSTVQVPAVLGAQSQAQTFYQPPEHQVSSSTTDQNNQINYFDQTKIRTEYIRTEYDAHLQSPTLSSSTNQQLSVSDFIMRPGYLVDPQDSLAVLLGSTIDDPLLRHTFPAAYQLNEVRQEPFDYSEQFIHHSLHDYPTYTSNTTNYATMMPMTTVSSTQSLVTSTSSTTTGRMTEASSTSPILPLCPAPTEKTVDHFYNSSIAEMCKTLPDDAQIARIFTSVKGTSKPEKHAFSIQVAEENLKDIVIWAKNDQLFSKLSLDDQMILLQTSWTTVHIVDITNAMVHGNLLSQYKMSNGDEVPVGLVALLGNQTFVSSWNDVVIRLRNMGFTNFDYCAFRFLALFDQSMDSFPAVSTARSRVLQSWREVRCTTAFLEIFEQIRRLAYDSLRYLWNLHSNCPTNWEQFFPEASLVLEMIRTTVNRSASSSVTAITQVPAIQLPTPQATYTAVPYMAS

Reference: publication PMC3861103
